What is called AC50 is the midpoint of the concentration-response curve, whichever way the signal moves.

In all, about 2,400 compounds went through this assay and about 20 (0.8%) were called active.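 Rule for the calls: active = AC50 no more than ten times the highest tested concentration, or full inhibition at every dose giving a flat fit (cut at about 30 µM in these data); inconclusive = flat fit with activity between 30% and 70%, or poor-quality invalid fit; inactive = AC50 more than ten times the top tested dose.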 Some of the results follow.

The nature of the test: inhibitors of ADP-Glo detection reagents, dose response, artefact control for GSK-3a inhibitor project, biochemical, luminescence, cell-free, homogeneous (AID 463205).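 Note: kinase-free counter-screen against the ADP-Glo detection reagents only; potency is for inhibitors that reduce the luminescence signal.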 The settings on record: 5 uM ADP. Background: In ADP-Glo the light output rises with the ADP produced.
Take `CCN(CC)Cc1c(O)ccc2c([N+](=O)[O-])c(C)n(-c3ccc(OC)cc3)c12`: the AC50 was inactive: > 30 µM.

As to `COc1ccc(-c2cc(C(=O)N3CCN(c4ccccc4OC)CC3)no2)cc1OC`, the AC50 is inactive: > 30 µM.

In the case of `O=S(=O)(c1cccs1)N1CCN(c2ccnc3cc(Cl)ccc23)CC1`, the AC50 is inactive: > 30 µM.

With `CC(=O)Nc1ccc(C(=O)OCC(=O)Nc2c(C)n(C)n(-c3ccccc3)c2=O)cc1`, the AC50 was inactive: > 30 µM.

For `CCOc1cc(C(c2c(C)[nH][nH]c2=O)c2c(C)[nH][nH]c2=O)ccc1O`, the AC50 was inactive: > 30 µM.

`Cc1ccc(-c2cc(-c3n[nH]c(=S)o3)c3ccccc3n2)cc1`: the AC50 is inactive: > 30 µM.

As for `CC(=O)Oc1ccc2ccc(=O)oc2c1`, the AC50 is inactive: > 30 µM.

As for `COc1ccc(COC(=O)C2=C(C)NC(=O)NC2c2ccc(O)cc2)cc1` (stereo not given), the AC50 was inactive: > 30 µM.

Regarding `O=C(NCCCCCCNC(=O)OCCO)OCCO`, the AC50 is inactive: > 30 µM.

Regarding `CC(=O)c1ccc(N=Nc2c(C)[nH][nH]c2=O)cc1`, the AC50 was inactive: > 30 µM.

Take `CCC(C)[C@H](NC(=O)NCc1ccc(Cl)cc1)C(=O)OC` (stereo not given in full): the AC50 was inactive: > 30 µM.

Consider `COc1ccc(Nc2nc(N)c([N+](=O)[O-])c(N3CCN(C)CC3)n2)cc1`, for which the AC50 was inactive: > 30 µM.

With `COCC(=O)Nc1ccc([N+](=O)[O-])cc1OC`, the AC50 is inactive: > 30 µM.

With `Cc1ccc(C(=O)N/N=c2\oc3ccccc3cc2C(N)=O)cc1`, the AC50 is inactive: > 30 µM.

With `COc1ccccc1N=c1oc2cc(O)ccc2cc1C(=O)NCC1CCCO1` (stereo not given), the AC50 was inactive: > 30 µM.

For the compound `CC(C)(C)OC(=O)N1CCC(NC(=O)c2[nH]cnc2C(=O)Nc2ccc(Cl)cc2)CC1`, the AC50 was inactive: > 30 µM.

Take `O=C(Nc1sc2c(c1C(=O)O)CCC2)c1cccs1`: the AC50 is inactive: > 30 µM.

On to `Cc1cc(NC(=O)c2cccc(S(=O)(=O)N3CC(c4ccccc4)CC3=O)c2)no1` (stereo not given), for which the AC50 is inactive: > 30 µM.

As for `CN(C)/C=C/c1[nH]c(=O)[nH]c(=O)c1[N+](=O)[O-]`, the AC50 is inactive: > 30 µM.

For the compound `Cc1c(C(=O)OC(C)C)[nH]c2c1C(=O)CCC2`, the AC50 was inactive: > 30 µM.

For `Cc1ccc(OCc2nnnn2-c2ccccc2)cc1`, the AC50 is inactive: > 30 µM.

For `Cc1ccc(S(=O)(=O)CCSc2n[nH]c(=O)n2-c2ccccc2)cc1`, the AC50 is inactive: > 30 µM.

In the case of `COc1cc(C(=O)NCC(=O)N/N=C\C(C)=C/c2ccccc2)cc(OC)c1OC`, the AC50 was inactive: > 30 µM.

Consider `Cc1ccnc(NC(=O)CCC(=O)N(CC(=O)NCc2ccc(F)cc2)Cc2ccco2)c1`, for which the AC50 was inactive: > 30 µM.

For `Cc1cccc(NC(=O)CSCC(=O)OCc2ccccn2)c1`, the AC50 was inactive: > 30 µM.

As to `Cc1ccc(C(=O)N/C(=C/c2ccc(-c3cccc([N+](=O)[O-])c3)o2)C(=O)NC(C)C)cc1`, the AC50 was inactive: > 30 µM.

For `COc1cccc(NC(=O)[C@@H]2CCCN2S(=O)(=O)c2cccc3cccnc23)c1`, the AC50 was inactive: > 30 µM.

As to `Oc1cc(O)cc(/C=C/c2ccc(O)c(O)c2)c1`, the AC50 was inactive: > 30 µM.

`Cc1cnc(NC(=O)C2CCCC2)s1`: the AC50 was inactive: > 30 µM.

As for `CCN1CCN(c2nc(Nc3cccc(OC)c3)nc(N)c2[N+](=O)[O-])CC1`, the AC50 was inactive: > 30 µM.

As to `CC(=O)Nc1c(C(=O)O)oc2ccc(Cl)cc12`, the AC50 is inactive: > 30 µM.

Take `COc1ccc(N=Cc2c(O)[nH]c3ccccc23)cc1OC`: the AC50 is inactive: > 30 µM.

As to `O=C(O)CCSc1nnc(-c2ccncc2)n1-c1ccccc1`, the AC50 is inactive: > 30 µM.

As for `O=C(Nc1ccccc1N1CCN(C(=O)c2ccccc2)CC1)c1ccc(Br)o1`, the AC50 was inactive: > 30 µM.

As to `COc1ccc(COC(=O)C2=C(C)NC(=O)NC2c2ccc(OC)c(OC)c2)cc1` (stereo not given), the AC50 was inactive: > 30 µM.

In the case of `Cc1nc(SCC(=O)Nc2ccccc2C(F)(F)F)c(C#N)c(C)c1CC(=O)c1ccc(Br)cc1`, the AC50 was inactive: > 30 µM.

As for `CCOC(=O)c1nnn(-c2nonc2N)c1-c1ccccc1Cl`, the AC50 was inactive: > 30 µM.

As to `Cc1ccsc1C1C2=C(CCCC2=O)Nc2ncnn21` (stereo not given), the AC50 is inactive: > 30 µM.

Turning to `COc1cc(/C=c2\s/c(=C\C(=O)C(C)(C)C)[nH]c2=O)cc(OC)c1OC`, the AC50 is inactive: > 30 µM.

Turning to `FC(F)(F)c1ccccc1/C=N/n1c(C2CCCCC2)n[nH]c1=S`, the AC50 was inactive: > 30 µM.

With `COc1cc(OC)cc(C(=O)O/N=C(\N)c2ccccn2)c1`, the AC50 is inactive: > 30 µM.

Consider `Cc1ccc(-n2c(SCc3ccc(C(=O)O)cc3)nnc2-c2ccncc2)cc1`, for which the AC50 was inactive: > 30 µM.

`CO/N=C/c1ccc(N2CCCC2)c([N+](=O)[O-])c1`: the AC50 is inactive: > 30 µM.

As for `CN1C(=O)N(C)C2(c3ccccc3)Nn3c(s/c(=C/c4ccccc4)c3=O)=NC12c1ccccc1` (stereo not given), the AC50 was inactive: > 30 µM.

For `CC(C)(C)c1ccc(/C=C2\Oc3cc(O)ccc3C2=O)cc1`, the AC50 was inactive: > 30 µM.

`CN(CCc1ccccn1)c1ncnc2[nH]ncc12`: the AC50 is inactive: > 30 µM.

For `Cc1ccc(S(=O)(=O)Nc2cccc3ncccc23)cc1`, the AC50 is inactive: > 30 µM.

Regarding `COc1cc(C(=O)NCC(=O)N/N=C(C)\C=C\c2ccccc2)cc(OC)c1OC`, the AC50 was inactive: > 30 µM.

For `CCc1ccc(N2CSC3=C(C#N)C(c4cccs4)CC(=O)N3C2)cc1` (stereo not given), the AC50 was inactive: > 30 µM.

For the compound `FC(F)(F)c1nnc2n1N=C(c1cccs1)CS2`, the AC50 is inactive: > 30 µM.

Turning to `CC1(C)CC(=O)C(C(c2ccncc2)C2C(=O)CC(C)(C)CC2=O)C(=O)C1`, the AC50 is inactive: > 30 µM.

With `Oc1ccc(-c2n[nH]c(=S)n2-c2ccc3c(c2)OCCO3)cc1`, the AC50 was inactive: > 30 µM.

Take `O=C(COC(=O)c1cc(S(=O)(=O)N2CCOCC2)ccc1F)Nc1ccc(Cl)cn1`: the AC50 is inactive: > 30 µM.

Regarding `O=C1c2ccccc2C(=O)c2c(Nc3ccc(CCO)cc3)ccc(O)c21`, the AC50 was inactive: > 30 µM.

In the case of `NC(=O)c1c(NC(=O)CSc2nnc(-c3ccccc3)n2CC2CCCO2)sc2c1CCC2` (stereo not given), the AC50 was inactive: > 30 µM.

For `CCOC(=O)Cc1c[nH]c2ccccc12`, the AC50 was inactive: > 30 µM.

Take `CCOC(=O)C1=C(c2ccccc2)Nc2ncnn2C1c1cccc(OC)c1OC` (stereo not given): the AC50 is inactive: > 30 µM.

As for `Cc1ccc2c(c1)Oc1ccc(NC(=O)CCCl)cc1C(=O)N2`, the AC50 is inactive: > 30 µM.

As to `Nc1cc(C(=O)O)c(N)c2c1C(=O)c1ccccc1C2=O`, the AC50 was inactive: > 30 µM.

Take `CCN(CC)CCOc1ccc2c(c1)C(=NNC(=O)c1ccccn1)c1cc(OCCN(CC)CC)ccc1-2`: the AC50 was inactive: > 30 µM.

As to `CN1/C(=C/C2CC(=O)NC2=O)C(C)(C)c2ccccc21` (stereo not given), the AC50 is inactive: > 30 µM.

`O=C(O)COc1c(Cl)cc(/C=C2/NC(=O)NC2=O)cc1Br`: the AC50 was inactive: > 30 µM.

`CCn1c2ccccc2c2nnc(SCC(N)=O)nc21`: the AC50 was inactive: > 30 µM.

With `O=[N+]([O-])c1cc(S(=O)(=O)N2CCCC2)ccc1NCCCN1CCOCC1`, the AC50 was inactive: > 30 µM.

With `CC1(C)CC(=O)C(CS(=O)(=O)c2ccccc2)=C(O)C1`, the AC50 is inactive: > 30 µM.

Turning to `CSc1nc(NCC(C)C)nc(N2CCOCC2)n1`, the AC50 was inactive: > 30 µM.

On to `Nc1nonc1-n1nnc(C(=O)N/N=C/c2ccc(F)cc2)c1-c1cccs1`, for which the AC50 is inactive: > 30 µM.

Consider `CCn1c2ccc(C)cc2c2nc3cc(C(=O)O)ccc3nc21`, for which the AC50 was inactive: > 30 µM.

In the case of `CCCc1[nH]nc2c1C(c1ccc(O)c(OC)c1)C(C#N)=C(N)O2` (stereo not given), the AC50 was inactive: > 30 µM.

Turning to `O=C(Oc1cccc([N+](=O)[O-])c1)N1CCCCC1`, the AC50 was inactive: > 30 µM.

For the compound `COc1cc(/C=N/NC(=O)c2cnccn2)ccc1O`, the AC50 was inactive: > 30 µM.

Take `O=S(=O)(NCC1CCCO1)c1ccc(Cl)nc1` (stereo not given): the AC50 was inactive: > 30 µM.

Consider `C/C(=N\NC(=O)c1nnn(-c2nonc2N)c1-c1ccccc1)c1cccnc1`, for which the AC50 was inactive: > 30 µM.

Turning to `N#Cc1sc2nc3c(c(-c4cccnc4)c2c1N)CCC3`, the AC50 was inactive: > 30 µM.

For `NC(=O)c1cc([N+](=O)[O-])c(Cl)cc1NCc1cccnc1`, the AC50 was inactive: > 30 µM.

`Fc1ccccc1/C=N/Nc1cc(N2CCCCC2)ncn1`: the AC50 is inactive: > 30 µM.

Turning to `Nn1c(-c2ccc(O)cc2)nnc1-c1ccc(O)cc1`, the AC50 is inactive: > 30 µM.

With `C#CCOCCOCCOCCNc1nc(N2CCN(C(=O)CCCCCCCCCCNC(=O)[C@H]([C@@H](C)CC)n3cc(CCCCCN)nn3)CC2)nc(N2CCN(C(=O)CCCCCCCCCCNC(=O)[C@H](CO)n3cc(CCCCCN)nn3)CC2)n1`, the AC50 was inactive: > 30 µM.

Take `COc1ccc(CCNc2ccc(S(=O)(=O)N3CCCC3)cc2[N+](=O)[O-])cc1`: the AC50 was inactive: > 30 µM.

With `Cc1cc(C(=O)c2cccs2)c(N)s1`, the AC50 was inactive: > 30 µM.

Regarding `CC(=O)Oc1ccc(C(=O)c2ccccc2)c(OC(C)=O)c1`, the AC50 was inactive: > 30 µM.

Take `CC(C)OCCCNc1nc2c([nH]1)c(=O)n(C)c(=O)n2C`: the AC50 was inactive: > 30 µM.

With `CSc1ccc(/C=C2\NC(=O)NC2=O)cc1`, the AC50 was inactive: > 30 µM.

For `CN(C)c1nc2sc3c(c2c(=O)n1C)CC(C)(C)OC3`, the AC50 is inactive: > 30 µM.

Turning to `CC(C)c1c(C(=O)N/N=C/c2ccncc2)nnn1-c1nonc1N`, the AC50 was inactive: > 30 µM.

Take `CCN1CCN(c2c(Cl)cccc2NC(=O)c2ccco2)CC1`: the AC50 was inactive: > 30 µM.

Consider `COc1ccc(OC)c(NC(=O)c2nnn(Cc3ccc(Br)cc3F)c2N)c1`, for which the AC50 is inactive: > 30 µM.

Regarding `Clc1ccc(CSc2nncn2-c2ccc3c(c2)OCCO3)cc1`, the AC50 is inactive: > 30 µM.

For `CC(C)(C)OC(=O)N1CC=C2C(C#N)=C(N)C(C#N)(C#N)C(c3cccs3)C2C1` (stereo not given), the AC50 was inactive: > 30 µM.

Turning to `CN(c1ccccc1)c1nc(-n2ccnc2)nc(-n2ccnc2)n1`, the AC50 is inactive: > 30 µM.

(Values after PubChem BioAssay AID463205 (Broad Institute, 2010).)
